# Data taken from PubChem BioAssay AID1259415 (National Center for Advancing Translational Sciences (NCATS), 2018).
# Where “and” joins values, the source holds several entries; their conditions need not be identical. Equal entries are not always repeated. The whole screen tested about 410,000 compounds, of which about 18,000 (4.4%) were called active. This list was built around the results that the source calls inconclusive (neither active nor inactive); the mix of calls is not that of the screen. Cut-off read from the data, not from the text of the source: active = activity change below about -60%; inconclusive = no clear call, values can overlap the other calls; inactive = above about -39%.
# Assay: qHTS Assay for inhibitors of the human cytomegalovirus (HCMV)
# Conditions: HFF cells, HCMV-luciferase reporter, 72 h; at 57.5 µM; active compounds read low
# How it was run: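 Luciferase read-out from HCMV-luciferase-infected HFFs (MOI 1 PFU/cell) 72 h post infection at 37C; compounds added after 16 h cell attachment; activity normalized between buffer-only basal and Salinomycin (10uM) inhibitor controls.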
# % is set by controls: 0 for no effect and ±100 for the full control effect.
row,SMILES,"activity change, negative = inhibition"
1,Cc1noc(C)c1C(=O)OCC(=O)N1CCN(S(=O)(=O)c2ccc3ccccc3c2)CC1,inconclusive: -50.5%
2,COc1cccc(NC(=O)Cn2c(=O)n(-c3ccccc3)c(=O)c3oc4ccccc4c32)c1,active: -67.9%
3,CSc1cccc(NC(=O)N2CCc3ccc(NC(=O)c4ccccn4)cc3C2)c1,inconclusive: -56.8%
4,Cc1ccc(N2CCN(S(=O)(=O)N3CCOCC3)CC2)cc1C,inactive: -1.53%
5,O=C(Nc1ccc(N2CCOCC2)cc1)c1ccc(Cl)c(S(=O)(=O)N2CCCCC2)c1,active: -62.5%
6,CCn1c(=O)c2sccc2n2c(CCCC(=O)N3CCN(c4ccc(F)cc4)CC3)nnc12,inconclusive: -47.2%
7,CN(C)c1ccc(-n2cccc2/C=N/n2cnnc2)cc1,inconclusive: -47.4%
8,CCOc1cccc2sc(N(CCCN(C)C)C(=O)c3ccc(S(=O)(=O)N(CC)Cc4ccccc4)cc3)nc12,inconclusive: -42.8%
9,CC(C)CCC(C(=O)NC(C)c1ccccc1)C(=O)NC(C)c1ccccc1 (stereo unspecified),inactive: -18.9%
10,C=CCOn1c(C)c(C(C)=O)c2c3nonc3ccc21,active: -80.6%
11,CN(C)c1ccc(CN2CCC(C(=O)NC(c3ccc(F)cc3)c3ccc4ccccc4n3)CC2)cc1 (stereo unspecified),inactive: 11%
12,CC(=NNC(=S)Nc1ccccc1Cl)c1ccccn1,active: -98.7%
13,O=C(c1cccc(C(F)(F)F)c1)N1CCC2(CC1)NCCc1[nH]cnc12,inactive: 12.2%
14,CCCCCCCCn1ccc(=N)cc1,inconclusive: -44.6%
15,CCN(CC)c1ccc(C(=O)OCC(=O)Nc2ncccn2)cc1,inconclusive: -41.5%
16,COc1ccc(-c2csc3ncnc(NCCCO)c23)cc1,active: -68%
17,CC(C)(C)c1csc(NC(=O)c2ccccc2O)n1,active: -93.9%
18,Cc1cccc(NC(=O)c2sc3ncnc(N(C)C4CCCCC4)c3c2C)c1C,inactive: 18.2%
19,CCCN1Cc2cccc(C(=O)Nc3cc(Cl)ccc3C)c2C1=O,inactive: 7.59%
20,COCCNC(=O)CS(=O)Cc1nc(-c2ccc(OC)cc2)oc1C (stereo unspecified),inactive: 43.5%
21,COc1cc(S(=O)(=O)N(Cc2ccc(C)cc2)Cc2ccco2)ccc1-n1cnnn1,inconclusive: -41.9%
22,Cc1cc(C)cc(NC(=S)N2CCN(Cc3ccccc3)CC2)c1,inconclusive: -40.3%

row,SMILES,"activity change, negative = inhibition"
1,CC(C)CN(C(=O)CN1CCOCC1)c1c(N)n(CC(C)C)c(=O)[nH]c1=O,active: -72.3%
2,C/C(=N\OCC(=O)Nc1ccc2c(c1)OCCO2)c1ccc2c(c1)OCCO2,inconclusive: -53.6%
3,CC(C)Oc1ccc(/C(O)=C2/C(=O)C(=O)N(CCN3CCNCC3)C2c2ccc(C(C)C)cc2)cc1 (stereo unspecified),inconclusive: -50.5%
4,Cc1cccc(CSCCNC(=O)CN(c2cc(C)cc(C)c2)S(C)(=O)=O)c1,inconclusive: -54.9%
5,Cc1cccc([C@@H]2[C@@H]3C(=O)N(Cc4ccccc4)C(=O)[C@@H]3[C@]3(Cc4ccc(Cl)cc4)C(=O)N(c4ccc(Br)cc4)C(=O)N23)c1,inactive: -17.1%
6,CCN(Cc1ccccc1)S(=O)(=O)c1cc(Br)cc2c1N(C(=O)C1CC1)CC2,inconclusive: -48.4%
7,COc1ccc(Nc2ncnc3c2cnn3-c2cccc(C)c2)cc1OC,inconclusive: -45.6%
8,Cc1cccc(OCC(=O)NCc2cc(C)nc3ccccc23)c1,inconclusive: -59.9%
9,COC(=O)c1ccccc1NC(=O)CN(C)S(=O)(=O)c1cc(C)ccc1OC,inconclusive: -52.8%
10,COc1ccc(-c2noc(CCc3ccccc3)n2)cc1,inactive: -7.94%
11,Cc1cc(SC#N)cc(C)c1NC(=O)CCl,active: -83.2%
12,C=C(C)[C@@H]1CC=C(CN2CCC(N3CCC(C(=O)N4CCCC4)CC3)CC2)CC1,inconclusive: -48.9%
13,CCC(C)NCCOCCOc1ccc(Cl)c(C)c1C (stereo unspecified),active: -82.6%
14,CCn1nc(C)c(CN2CCC(n3nccc3NC(=O)Cc3ccccc3)CC2)c1C,inconclusive: -40.9%
15,COc1cccc(N2C(=O)C3NN=C(C(=O)CN4C(=O)c5ccccc5C4=O)C3C2=O)c1 (stereo unspecified),inactive: 18.3%
16,COc1ccccc1N(CC(=O)Nc1c(C)n(C)n(-c2ccccc2)c1=O)S(=O)(=O)c1ccc(C)cc1,inconclusive: -54.6%
17,O=C(CSc1nc2[nH]ncc2c(=O)n1-c1ccc(Cl)c(Cl)c1)NCc1ccccc1Cl,inconclusive: -42.9%
18,O=C1C2C3C=CC(C4CC34)C2C(=O)N1Cc1ccccc1 (stereo unspecified),inconclusive: -51.4%
19,CCOC(=O)C1=CC[C@@H](c2ccc(F)cc2)N(S(=O)(=O)c2ccc(C)cc2)[C@H]1c1ccccc1,inconclusive: -41.7%
20,O=C(Cc1ccccc1F)Nc1ccc2c(c1)CCC2,inactive: -15%
21,CCN(CC)S(=O)(=O)c1ccc2c(c1)N(CC(=O)Nc1cccc(C#N)c1)C(=O)CO2,inactive: -11.1%
22,O=C(Nc1nnc(CCN2CCCCC2)s1)c1ccccc1,inactive: -19.5%

row,SMILES,"activity change, negative = inhibition"
1,CC(NC(=S)NCCc1ccccc1)C(c1cccs1)N1CCN(Cc2ccccc2)CC1 (stereo unspecified),active: -80.7%
2,Cc1ccc(CSc2nnc(SCC(=O)N/N=C/C=C/c3ccco3)s2)cc1,active: -61.2%
3,CN(C)CCNC(=S)Nc1ccccc1C(C)(C)C,inactive: -2.4%
4,COc1ccc(N2CCN(Cc3nc4c(c(=O)[nH]c(=O)n4C)n3Cc3ccccc3C)CC2)cc1,inactive: -4.68%
5,COc1ccc(-n2cc(-c3ccccc3)[nH]c2=S)cc1,inactive: 3.26%
6,COc1ccc(Cl)cc1NC(=S)N1CCN(c2ncccn2)CC1,inconclusive: -46.3%
7,Cc1cccc(OC(=O)c2sc3ncn(C)c(=O)c3c2C)c1,inconclusive: -40.6%
8,CCOCCCNC(=O)c1cc(=O)n(Cc2cccc(C)c2)c2ccccc12,active: -61.6%
9,Cc1ccc(NC(=O)C2CCN(S(=O)(=O)c3ccc4c(c3)NC(=O)C(C)S4)CC2)cc1C (stereo unspecified),active: -61.6%
10,COc1ccc(N/C=C(\C#N)c2ccc(OCCCF)cc2)cc1,active: -91.2%
11,CC1CCC2(CC1)NC(=O)N(CC(=O)NCc1ccco1)C2=O (stereo unspecified),inconclusive: -45.9%
12,Cc1cccc(-n2c(SCc3ccc(C#N)cc3)nnc2-c2c[nH]c3ccccc23)c1,inconclusive: -46.1%
13,Cc1nn(C(C)C(=O)c2cccc(Cl)c2)c(C)c1[N+](=O)[O-] (stereo unspecified),inactive: -7.45%
14,Cc1cccc(NC(=O)c2ccc(-n3c(C)nnc3C)cc2)c1,inactive: 17.6%
15,Cc1ccc(-n2ncc3c(N4CCCCCC4)ncnc32)cc1Cl,active: -90.3%
16,COc1ccc(C(=O)C2CCCN(Cc3cn[nH]c3-c3ccc(F)cc3)C2)cc1OC (stereo unspecified),inactive: -26.6%
17,Cc1ccc(-n2c(-c3ccc(Br)cc3)c[n+]3c2CCc2ccc4cccnc4c2-3)cc1,active: -104%
18,O=C(NCCN1CCCCC1)/C(=N\O)c1ccccc1,inactive: 23.3%
19,CN1CCN(CC(=O)Nc2c(C(=O)c3ccccc3)oc3ccccc23)CC1,inconclusive: -46.6%
20,CC(C)(C)c1ccc(O)c(N=Cc2cc3c(cc2[N+](=O)[O-])OCO3)c1,inconclusive: -51.8%
21,CCCN(CCC)C(=O)Cn1c(=O)n(-c2cccc(C)c2)c(=O)c2c1c1cc(OC)ccc1n2C,inactive: -29.5%
22,O=C(c1cnc(N2CCN(c3ncccn3)CC2)c2ccccc12)N1CCN(c2ncccn2)CC1,inconclusive: -44.9%

row,SMILES,"activity change, negative = inhibition"
1,Cc1ccc2oc(C(=O)N(C)CCC(O)c3ccccc3)c(C)c2c1 (stereo unspecified),inactive: 21%
2,Cc1cccc(N2CCN(C(=O)c3ccc(S(=O)(=O)N(C)c4ccccc4)cc3)CC2)c1C,inconclusive: -48.6%
3,COc1ccc(/C=C2\SC(=S)N(CCC(=O)NCCc3ccc(O)cc3)C2=O)cc1,inconclusive: -57.5%
4,O=C(C[n+]1cc(Br)cc(Br)c1)c1ccc(Cl)cc1,inactive: 71.3%
5,CCOC(=O)c1cn(Cc2ccc(C)cc2)c2cc(F)ccc2c1=O,inconclusive: -52.7%
6,O=C(NCc1ccc2c(c1)OCO2)c1sccc1Br,inconclusive: -42.6%
7,CCc1ccc(CNC(=O)C2CCCN(c3nnc(C)c4c(C)n(-c5ccccc5)nc34)C2)cc1 (stereo unspecified),active: -69.1% and active: -108%
8,Cc1ccc(Cl)c(NC(=O)CN(C)CC(=O)Nc2ccc(F)c(F)c2F)c1Cl,inconclusive: -52.7%
9,O=C(Nc1ccc(Cl)cn1)C1CCCN1S(=O)(=O)c1cccc2ccccc12 (stereo unspecified),inconclusive: -42.1%
10,O=c1c2cc3c(cc2nc2sc(Nc4cccc([N+](=O)[O-])c4)nn12)OCO3,inactive: 0%
11,CC(Sc1nc(C(C)(C)C)cc(-c2ccccc2)c1C#N)C(=O)Nc1ccccc1 (stereo unspecified),active: -63.5%
12,O=C(Nc1ccc(Cl)cc1Cl)c1ccc2c(=O)n3c(nc2c1)CCC3,inactive: 37%
13,COc1ccc(Nc2ncnc3ccc(Br)cc23)c(OC)c1,active: -98.7%
14,CCOc1ccc2nc(NC(=O)/C=C/c3ccc4c(c3)OCO4)sc2c1,inconclusive: -50.4%
15,Cc1ccc(C(=O)N/N=C/c2nc3ccccc3n2C)cc1,active: -65.6%
16,O=c1cc(N2CCc3ccccc3C2)[nH]c(=O)n1-c1ccc(Cl)cc1,inactive: 3.33%
17,COc1ccccc1NC(=O)c1cc(Br)ccc1Cl,inactive: -16.2%
18,O=C(Nc1cccc(Br)c1)c1ccc2c(c1)SC1=NS(=O)(=O)CCN12,inconclusive: -57%
19,CCN(CCCNC(=O)CCNC(=O)Cn1ccc2ccccc2c1=O)c1ccccc1,inconclusive: -42.9%
20,CCOc1ccc(OCC(=O)N(CCC2=CCCCC2)c2c(N)n(Cc3ccccc3)c(=O)[nH]c2=O)cc1,active: -84.2%

# Six entries from above in a different format.
row | SMILES | activity change, negative = inhibition
12 | O=C(Nc1ccc(Cl)cc1Cl)c1ccc2c(=O)n3c(nc2c1)CCC3 | inactive: 37%
13 | COc1ccc(Nc2ncnc3ccc(Br)cc23)c(OC)c1 | active: -98.7%
14 | CCOc1ccc2nc(NC(=O)/C=C/c3ccc4c(c3)OCO4)sc2c1 | inconclusive: -50.4%
15 | Cc1ccc(C(=O)N/N=C/c2nc3ccccc3n2C)cc1 | active: -65.6%
16 | O=c1cc(N2CCc3ccccc3C2)[nH]c(=O)n1-c1ccc(Cl)cc1 | inactive: 3.33%
17 | COc1ccccc1NC(=O)c1cc(Br)ccc1Cl | inactive: -16.2%

# 3 compounds from above, sorted by formula weight, high to low:
row,SMILES,"activity change, negative = inhibition"
7,CCc1ccc(CNC(=O)C2CCCN(c3nnc(C)c4c(C)n(-c5ccccc5)nc34)C2)cc1 (stereo unspecified),active: -69.1% and active: -108%
10,O=c1c2cc3c(cc2nc2sc(Nc4cccc([N+](=O)[O-])c4)nn12)OCO3,inactive: 0%
14,CCOc1ccc2nc(NC(=O)/C=C/c3ccc4c(c3)OCO4)sc2c1,inconclusive: -50.4%
